Results are given in words; binding and its absence hold for the method and conditions named. Some entries that bind do so weakly or less than the wild type.
Tests used:
[1] = target: Human recombinant full length PTX3 (long pentraxin PTX3) (human) (UniProt P26022); assay: SPR (BIAcore): FGF2 0.8 µM (upper) and 0.1, 0.5, 0.8, 1.1 µM (lower) injected over immobilized PTX3
[2] = target: Human recombinant FGF2 (Fibroblast growth factor-2) (human) (UniProt P09038); assay: ELISA: FGF2-coated wells, protein at 44 nM, detection with rabbit polyclonal anti-PTX3 antibody
[3] = target: Human recombinant FGF2 (Fibroblast growth factor-2) (human) (UniProt P09038); assay: solid phase binding assay (ELISA), FGF2-coated wells, protein 44 nM, anti-PTX3 detection
[4] = target: Human recombinant FGF2 (Fibroblast growth factor-2) (human) (UniProt P09038); assay: competition ELISA: bPTX3 (22 nM) on FGF2-coated wells with a 10 fold-molar excess of competitor
[5] = target: Human recombinant FGF2 (Fibroblast growth factor-2) (human) (UniProt P09038); assay: SPR competition: FGF2 0.8 µM over immobilized PTX3 with free PTX3 in the mobile phase
[6] = target: Human recombinant FGF2 (Fibroblast growth factor-2) (human) (UniProt P09038); assay: solid phase binding assay, PTX3-coated wells, FGF2 80 nM, anti-FGF2 detection
[7] = target: Human recombinant FGF2 (Fibroblast growth factor-2) (human) (UniProt P09038); assay: competition ELISA: bPTX3 (22 nM) on FGF2-coated wells with competitor at 220 nM

Chains of the proteins cited; added tags and fusions are not shown. Lines headed by an entry give the natural chain unless they say otherwise; changes in a name come on top. A line that says so, or that is headed by a name, gives the form on record, which may keep a tag or linker. Residues count along the entry.
Human recombinant full length PTX3 (long pentraxin PTX3) (P26022, residues 18-381): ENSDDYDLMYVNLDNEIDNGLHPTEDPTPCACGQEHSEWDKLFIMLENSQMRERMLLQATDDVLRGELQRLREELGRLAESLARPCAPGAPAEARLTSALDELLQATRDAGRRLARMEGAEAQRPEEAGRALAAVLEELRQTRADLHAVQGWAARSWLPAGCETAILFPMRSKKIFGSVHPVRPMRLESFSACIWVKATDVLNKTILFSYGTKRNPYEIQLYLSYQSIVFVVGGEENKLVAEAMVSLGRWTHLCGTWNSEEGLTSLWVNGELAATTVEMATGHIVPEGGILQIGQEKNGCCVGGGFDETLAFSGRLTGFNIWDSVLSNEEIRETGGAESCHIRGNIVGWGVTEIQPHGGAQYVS
recombinant 6xHis-tagged Nterm-PTX3 (N-terminal fragment PTX3(1-178)), from E. coli (P26022, form named): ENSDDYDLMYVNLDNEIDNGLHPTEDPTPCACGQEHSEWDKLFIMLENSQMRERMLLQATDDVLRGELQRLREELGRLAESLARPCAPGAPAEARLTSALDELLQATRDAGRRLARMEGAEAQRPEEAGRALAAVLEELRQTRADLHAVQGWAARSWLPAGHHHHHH
UniProt P09038, residues 134-288: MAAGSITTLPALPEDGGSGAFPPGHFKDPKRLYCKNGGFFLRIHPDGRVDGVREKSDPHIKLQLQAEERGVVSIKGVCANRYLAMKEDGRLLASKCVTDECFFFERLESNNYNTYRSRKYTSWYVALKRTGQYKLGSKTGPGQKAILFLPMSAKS

Measured: binding

Human recombinant FGF2 (Fibroblast growth factor-2) (from UniProt P09038 134-288) (ligand)
binds: [1]

recombinant 6xHis-tagged Nterm-PTX3 (N-terminal fragment PTX3(1-178)), from E. coli (from UniProt P26022 18-178)
binds: [2] | [3] | [4]

Human recombinant full length PTX3 (long pentraxin PTX3) (from UniProt P26022 18-381)
not listed: [1]
binds: all other assays above

Reference: US20090215689A1
